From article PMC7819943, “Rice protein-binding microarrays: a tool to detect cis-acting elements near promoter regions in rice” come the findings set out here.

The chains behind the UniProt entries cited, without tags or fusion partners.
UniProt Q0JBA9, entry or part of it: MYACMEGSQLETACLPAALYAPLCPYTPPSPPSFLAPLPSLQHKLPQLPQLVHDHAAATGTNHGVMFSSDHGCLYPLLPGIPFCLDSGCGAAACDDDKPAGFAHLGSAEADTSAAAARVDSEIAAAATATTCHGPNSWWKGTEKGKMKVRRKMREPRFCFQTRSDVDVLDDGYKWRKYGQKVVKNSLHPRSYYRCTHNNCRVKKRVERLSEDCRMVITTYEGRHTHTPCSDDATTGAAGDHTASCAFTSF

This is one part of the list.

The target in this assay is OsWRKY34 (Oryza sativa, UniProt Q0JBA9 1-250). Briefly: protein-binding microarray (RPBM); PBS, 2% BSA, 51.3 ng/ul salmon testes DNA, 50 uM zinc acetate, 200 nM TF, 25 C, 1 h; high values mean tight binding. Particulars: protein: recombinant; tags: N-terminal polyhistidine and DsRed monomer fusion (pET32a); label: CyDye5-dUTP incorporated in the synthesized complementary strand; 3' TTTTT single-stranded linker to array surface; dsDNA, one strand shown. An outline of the steps:
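A custom Agilent array was converted to double-stranded form by primer extension with Cy5-dUTP and blocked with 2% BSA. Protein at 200 nM in PBS with 2% BSA, salmon testes DNA and 50 µM zinc acetate was applied for 1 h at 25 °C, followed by washing. The proteins were polyhistidine–DsRed N-terminal fusions of transcription factors, expressed in E. coli BL21-CodonPlus and Ni–NTA-purified. The binding signal is per-feature fluorescence intensity (arbitrary units) from an Axon 4000B scanner.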
As for “TTTAACACATGTTTGACCGTTCGTCTTATTCAAAAACTTTCGGAGTCACCTAGTGCAG”, the binding signal is 10900 fluorescence intensity (a.u.).

With “CTTCCCTAAATGTTTAACGCCATTGACTTTTTTAAACATGCGGAGTCACCTAGTGCAG”, the binding signal was 12900 fluorescence intensity (a.u.).

On to “GAATTTCTTCGCCCTACCACTTCGGTCCATCTGAAGAAATCGGAGTCACCTAGTGCAG”, for which the binding signal was 8320 fluorescence intensity (a.u.).

For the sequence “CCTCACCCCGTCCCGATGACCGATCCGATCTAGCAACCAACGGAGTCACCTAGTGCAG”, the binding signal was 8100 fluorescence intensity (a.u.).

Consider “TGAAGTTCTTATGGTCGCTAATCGTTTGCTTGCTGTTTGACGGAGTCACCTAGTGCAG”, for which the binding signal is 10200 fluorescence intensity (a.u.).

Consider “TCACGGCCGCCTCCGCCATCTGCACAACCTCGCCGCCGCCCGGAGTCACCTAGTGCAG”, for which the binding signal is 9670 fluorescence intensity (a.u.).

As for “GGTTTTTTTACGGATAAATCTGGTTTTTTTGTCCGATTTTCGGAGTCACCTAGTGCAG”, the binding signal is 8170 fluorescence intensity (a.u.).

In the case of “GATATCCGGTTTTGTAGTTTAGGGTCATGGTTTAGATTTCCGGAGTCACCTAGTGCAG”, the binding signal is 14600 fluorescence intensity (a.u.).

Take “CTGTTTTTGCCTTTCGATTCCGTCAATAGACTTAGCTATTCGGAGTCACCTAGTGCAG”: the binding signal was 8570 fluorescence intensity (a.u.).

As to “GCTCCATCCTCTATACCCTATCTCTACTACCTACCCGCTCCGGAGTCACCTAGTGCAG”, the binding signal was 9100 fluorescence intensity (a.u.).

As to “CCCTTACATTATTCCCATGTTTTATATAATTTCAAATTTTCGGAGTCACCTAGTGCAG”, the binding signal was 10300 fluorescence intensity (a.u.).

Take “TGTCACGCACTAATCCGCTGTTTTCTCCGGCCGTTCGCCTCGGAGTCACCTAGTGCAG”: the binding signal was 11900 fluorescence intensity (a.u.).

As to “GTCGCCCGTGCATCACTATATCGCACCTCGGTTTCACCCTCGGAGTCACCTAGTGCAG”, the binding signal was 10900 fluorescence intensity (a.u.).

Consider “CGTCACCGCCTCCTCCTCCTCCGCCGCCGTCGCCCTCGCGCGGAGTCACCTAGTGCAG”, for which the binding signal was 8970 fluorescence intensity (a.u.).

On to “ATTTTATCACCTTTTTAGAGTCATTCTTTGACTGCTATGTCGGAGTCACCTAGTGCAG”, for which the binding signal is 9550 fluorescence intensity (a.u.).

As to “GCTTCGTCACTGTCGCTATACTTGCCAATTCAAATGTCTTCGGAGTCACCTAGTGCAG”, the binding signal was 11500 fluorescence intensity (a.u.).

“TGGAGTTCTTTATTGCTTAAGCTCGATCAGATTTCGTTTTCGGAGTCACCTAGTGCAG”: the binding signal was 10500 fluorescence intensity (a.u.).

In the case of “CCTCCGTCGACCCCGCTCGCCCAGACCCGCTTACCGCCTTCGGAGTCACCTAGTGCAG”, the binding signal was 9040 fluorescence intensity (a.u.).

Regarding “GCATCTCTATAAATACCCTTGCTATCCCACATTCCAAACTCGGAGTCACCTAGTGCAG”, the binding signal was 8810 fluorescence intensity (a.u.).

Regarding “TATTACATTGATCAGTTTCCTTTTGAAGGTCCTTTCTCTTCGGAGTCACCTAGTGCAG”, the binding signal was 8920 fluorescence intensity (a.u.).

With “TTTTAACTCTAAACTATAACCTTTTTCTTTCTTTTCGTTACGGAGTCACCTAGTGCAG”, the binding signal was 8200 fluorescence intensity (a.u.).

With “AGACCTACCGATTGGTGCTGACATTGGTCGTTATTGCAAACGGAGTCACCTAGTGCAG”, the binding signal is 8740 fluorescence intensity (a.u.).

For the sequence “TTTTGGCTGACGTGGCGCTTACGTGGTTGGTTTGACTAGACGGAGTCACCTAGTGCAG”, the binding signal is 8510 fluorescence intensity (a.u.).

Consider “TCCGGTTGGCAAGTTTGTTGGATTAGGATTTTGATTCAAACGGAGTCACCTAGTGCAG”, for which the binding signal was 8710 fluorescence intensity (a.u.).

As to “CTATATATTATCAAGTTTGACTGGTTGACTATGGTTGTGTCGGAGTCACCTAGTGCAG”, the binding signal is 10500 fluorescence intensity (a.u.).

Regarding “ATTAATTCCTCGCGCCCCATCCATCCATTCCCCTGCCATGCGGAGTCACCTAGTGCAG”, the binding signal was 9080 fluorescence intensity (a.u.).

Take “TCTCTTTCTCTCTCTTGGGCAATCTGTGGGCAGGGGCGGCCGGAGTCACCTAGTGCAG”: the binding signal is 12400 fluorescence intensity (a.u.).

Take “CCTTGTTGGCTTGTCTTGTTTGTCCATGAAAATCTCATAGCGGAGTCACCTAGTGCAG”: the binding signal was 10100 fluorescence intensity (a.u.).

With “CGTTTGGCCAAGTATATGACGCCCTAACTTATAAGTTGACCGGAGTCACCTAGTGCAG”, the binding signal was 8420 fluorescence intensity (a.u.).

On to “GTTGTTAATAGTGGGTTTTTTAGCGTTGTTAATTATAAATCGGAGTCACCTAGTGCAG”, for which the binding signal was 9830 fluorescence intensity (a.u.).

Turning to “CCGCCCTTAGACAGGCCCCGCCTCCGCCTCCGCGCCCACCCGGAGTCACCTAGTGCAG”, the binding signal is 27800 fluorescence intensity (a.u.).

In the case of “TTCTTACCTTTTTCGATTTCGTCGTTCACTGTTGTTAGTCCGGAGTCACCTAGTGCAG”, the binding signal is 10000 fluorescence intensity (a.u.).

In the case of “CTTTCAATATTGCTTATTTTTAAATCCGAATTTCAGCTATCGGAGTCACCTAGTGCAG”, the binding signal is 9420 fluorescence intensity (a.u.).

On to “CTCTCCTTTTCTTCTTCTCAGCGTCGCCGTCGTCTTCTTTCGGAGTCACCTAGTGCAG”, for which the binding signal is 10900 fluorescence intensity (a.u.).

Take “TTTTCAACCTTATATTGTCATTGTCCGTCAACTTGGCTTGCGGAGTCACCTAGTGCAG”: the binding signal was 8970 fluorescence intensity (a.u.).

On to “TTCCCACTAACCCCAATTCACTCATGTTGTAGTATCCGTACGGAGTCACCTAGTGCAG”, for which the binding signal was 12100 fluorescence intensity (a.u.).

For “GTCGATCTCCCCGTCCCGGTGGACTATCGCGCGCGTTTTTCGGAGTCACCTAGTGCAG”, the binding signal was 8620 fluorescence intensity (a.u.).

“TAGTTTTGTTTAATTCCTGTCTCGGGTTTGGTTGGTTGCTCGGAGTCACCTAGTGCAG”: the binding signal is 19100 fluorescence intensity (a.u.).

“TCCGACTCTCTTCGTCTCACTGCTCCGTGGGCCCACCCAACGGAGTCACCTAGTGCAG”: the binding signal is 8200 fluorescence intensity (a.u.).

Consider “GGCTATCCCATCGTCGTTTGCTTTGATTTGATGCTTGTTTCGGAGTCACCTAGTGCAG”, for which the binding signal was 11400 fluorescence intensity (a.u.).

As to “GCACCGAACTCCGGCGAGCCCACGTGAACACCACCACTCTCGGAGTCACCTAGTGCAG”, the binding signal is 9990 fluorescence intensity (a.u.).

For “GTCCTCCTCCTGTGCCGCCGCGCTCTCTCTCTCTCTCGCTCGGAGTCACCTAGTGCAG”, the binding signal was 8520 fluorescence intensity (a.u.).
